{"source": "PubChem BioAssay AID1347076", "about": "(National Center for Advancing Translational Sciences (NCATS), 2019)", "note": "Among all 400,000 compounds or so, about 13,000 (3.2%) were called active. The inconclusive results got no clear call from the source; some entries with a clear call stand among them for comparison. The call rests on the fitted dose curve; in most records, active means well fitted cell-killing curve with a large enough effect; inconclusive means small, poorly fitted or top-dose-only effect, or effect the other way; inactive means flat fitted curve, though single readings scatter. A potency beside an inconclusive call is a rough fit, not a confirmed value. On the % scale 0 is the no-effect control and ±100 the full control effect; potency means the concentration at half of the fitted maximal effect."}
{"test": "qHTS assay for MDR1-selective chemotherapeutics: Primary screen using the drug-selected MDR subline cells KB-V1; further: nearly all actives have a fitted effect of over 60% in size", "details": "KB-V1 MDR cells viability, CellTiter-Glo, 72 h; activity change, negative = cytotoxicity: at 46.1 µM (top of the series)", "procedure,_shortened": "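Cells of the MDR subline KB-V1 are plated, dosed with compound at multiple concentrations, and incubated 72 h at 37 degrees C; CellTiter-Glo is then added and luminescence read after 10 min.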"}
{"smiles": "COc1ccc(OC)c(/C=C/C(=O)N2C(=O)c3cccc(N)c3C2=O)c1", "Potency": "inconclusive: 18.4 µM [cytotoxic, single point]"}
{"smiles": "C=C1c2nc3ccccc3n2C=C(c2ccc(C)cc2)N1c1ccccc1", "Potency": "inconclusive: 7.31 µM [cytotoxic, partial curve]"}
{"smiles": "COC(=O)N/N=C/c1c(C)c(C(=O)c2ccc(F)cc2)n2ccccc12", "Potency": "active: 23.1 µM"}
{"smiles": "COc1ccc(-c2cccc(C3CC=CC4C3C(=O)N(Cc3ccccc3)C4c3ccc(OC)c(Cl)c3)c2)cc1", "note": "(stereo unspecified)", "Potency": "inactive"}
{"smiles": "CC(C)(C)c1ccc(C(=O)N2CCN(CCNC(=O)C(=O)NCc3ccccc3)CC2)cc1", "Potency": "active: 7.31 µM"}
{"smiles": "O=C(Nc1cccc(Cn2cccn2)c1)c1cc2c(s1)CCCC2", "Potency": "inconclusive: 7.08 µM [cytotoxic, partial curve]"}
{"smiles": "Nc1ncnc2c1ncn2[C@@H]1O[C@H](C(=O)Nc2cc(C(F)(F)F)cc(C(F)(F)F)c2)[C@@H](O)[C@H]1O", "Potency": "inactive"}
{"smiles": "CC(=O)Nc1cccc(-c2ccnc3c2CC(C)(C(=O)Nc2cccc(OC(F)(F)F)c2)O3)c1", "note": "(stereo unspecified)", "Potency": "inconclusive: 18.4 µM [cytotoxic, single point]"}
{"smiles": "COc1ccc([C@H]2C[C@@H](O)[C@H](n3cc(C4CC4)nn3)CN2C(=O)c2cccs2)cc1", "Potency": "inactive"}
{"smiles": "O=C1C(=Cc2cccs2)C(=O)c2ccccc21", "Potency": "inactive"}
{"smiles": "O=C(c1cc2cc(Cl)ccc2o1)N1CCCCCC1", "Potency": "inconclusive: 29.1 µM [cytotoxic, single point]"}
{"smiles": "O=C(c1cnn2c1NC(c1ccco1)CC2C(F)(F)F)N1CCN(c2cccc(Cl)c2)CC1", "note": "(stereo unspecified)", "Potency": "inconclusive: 16.4 µM [cytotoxic, partial curve]"}
{"smiles": "COc1cc(/C=C/c2cccc[n+]2C)ccc1OCC(=O)Nc1ccccc1C", "Potency": "inconclusive: 29.1 µM [rising, single point]"}
{"smiles": "Cc1cc(OCCOCCNC(C)C)cc(C)c1Cl", "Potency": "inconclusive: 29.1 µM [cytotoxic, single point]"}
{"smiles": "COc1ccc(C2SCC(C(=O)O)N2C(C)=O)cc1OC", "note": "(stereo unspecified)", "Potency": "inactive"}
{"smiles": "COc1cc(OC)cc(C(=O)NCC(=O)NC(C)CCc2ccccc2)c1", "note": "(stereo unspecified)", "Potency": "inconclusive: 5.8 µM [cytotoxic, partial curve]"}
{"smiles": "COc1ccc(NS(=O)(=O)c2cccc(C(=O)NNC(=O)c3ccc(Br)o3)c2)cc1", "Potency": "inactive"}
{"smiles": "CCOC(=O)Cc1nn(Cc2nc(-c3ccc(C)cc3)cs2)c(=O)c2ccccc12", "Potency": "inconclusive: 13 µM [cytotoxic, partial curve]"}
{"smiles": "CCCC1=[N+](CC(=O)c2ccccc2)CCn2c(C)ccc21", "Potency": "inconclusive: 32.6 µM [cytotoxic, partial curve, poor fit]"}
{"smiles": "Cc1c(CCOC(=O)c2ccccc2)sc[n+]1CC(=O)c1ccc(Br)cc1", "Potency": "active: 7.31 µM"}
{"smiles": "Cc1ccc(NS(=O)(=O)c2cc3c4c(cccc4c2)C(=O)NC3=O)cc1C", "Potency": "inconclusive: 29.1 µM [cytotoxic, single point]"}
{"smiles": "Cc1[nH]n(C2=NCCS2)c(=O)c1N=Nc1ccccc1", "Potency": "inconclusive: 25.9 µM [cytotoxic, partial curve, poor fit]"}
{"smiles": "C=CCN(c1ccccc1)S(=O)(=O)c1cccc(C(=O)NCC(c2ccccc2OC)N2CCCC2)c1", "note": "(stereo unspecified)", "Potency": "inactive"}
{"smiles": "COc1cc2c(cc1OC)C(C)N(C(=O)c1c(C)noc1C)CC2", "note": "(stereo unspecified)", "Potency": "inconclusive: 20.6 µM [cytotoxic, single point]"}
{"smiles": "O=C(C1=C(O)C(=O)N(c2ncccn2)C1c1ccc(F)cc1)c1ccco1", "note": "(stereo unspecified)", "Potency": "inconclusive: 29.1 µM [rising, single point]"}
{"smiles": "CCOC(=O)CCN", "Potency": "inactive"}
{"smiles": "C=C1c2cc(OC)ccc2NC(=O)N1CC", "Potency": "active: 7.31 µM"}
{"smiles": "O=C(Cc1ccc(Cl)cc1)Nc1ncc([N+](=O)[O-])s1", "Potency": "inconclusive: 29.1 µM [cytotoxic, single point]"}
{"smiles": "O=C(CCc1ccccc1)Nc1nc2c(F)cc(F)cc2s1", "Potency": "inactive"}
{"smiles": "Cc1nc(Oc2ccc(Cl)cc2)c2oc3ccccc3c2n1", "Potency": "inconclusive: 18.4 µM [cytotoxic, single point]"}
{"smiles": "COc1ccc(-c2nc(C)c(CCNC(=O)C(=O)Nc3ccccc3F)s2)cc1", "Potency": "inconclusive: 4.11 µM [cytotoxic, full curve]"}
{"smiles": "Cc1ccc(NC(=O)Cn2c(=O)n(CC3CCC(C(=O)NC(C)C)CC3)c(=O)c3sccc32)cc1", "note": "(stereo unspecified)", "Potency": "inactive"}
{"smiles": "COc1ccc(CCN2CCC(CNC(=O)c3cnn(-c4ccc(C)cc4)c3C3CCN(C(=O)OC(C)(C)C)CC3)CC2)cc1", "Potency": "inconclusive: 29.1 µM [cytotoxic, single point]"}
{"smiles": "COc1ccc(NC(=O)c2ccccc2N(Cc2ccccc2)S(C)(=O)=O)cc1", "Potency": "inconclusive: 32.6 µM [cytotoxic, single point]"}
{"smiles": "O=C(CNC(=O)c1ccccc1C(=O)O)c1ccccc1", "Potency": "inconclusive: 0.92 µM [rising, partial curve]"}
{"smiles": "COCCNC(=O)CCCn1c(=O)c2ccccc2n(CC(=O)NCCC2=CCCCC2)c1=O", "Potency": "inconclusive: 8.2 µM [rising, partial curve, poor fit]"}
{"smiles": "OC[C@@H]1CN(Cc2cccs2)C[C@H](n2cnc3c(NC4CCC4)ncnc32)O1", "Potency": "inactive"}
{"smiles": "CCCc1nc2c(c(=O)c3ccccc3n2C)c(=O)n1-c1cc(C)cc(C)c1", "Potency": "inconclusive: 5.8 µM [cytotoxic, partial curve, poor fit]"}
{"smiles": "O=C(CN1C(=O)CCC1=O)Nc1cccc(NC(=O)CN2C(=O)CCC2=O)c1", "Potency": "inconclusive: 20.6 µM [rising, single point]"}
{"smiles": "COc1cccc(C(=O)Nc2nc3ccccc3[nH]2)c1", "Potency": "inconclusive: 29.1 µM [cytotoxic, partial curve, poor fit]"}
{"smiles": "FC(F)(F)c1ccccc1Cc1c(-c2cccc(Br)c2)nc2c3ccccc3ccn12", "Potency": "inactive"}
{"smiles": "C/C(=N\\OCC(=O)Nn1c(=O)[nH]c2ccccc2c1=O)c1ccccc1", "Potency": "inconclusive: 23.1 µM [cytotoxic, single point]"}
{"smiles": "CC1(C(=O)NS(=O)(=O)c2cccc(C#N)c2)CCN1C(=O)c1cccc2ccccc12", "note": "(stereo unspecified)", "Potency": "inconclusive: 20.6 µM [rising, single point]"}
{"smiles": "CC(=O)Nc1cccc(NC(=O)CSc2ncc(-c3ccc(Cl)cc3)n2Cc2ccco2)c1", "Potency": "inconclusive: 25.9 µM [cytotoxic, partial curve, poor fit]"}
{"smiles": "O=C(NCCc1csc(-c2ccccc2)n1)c1ccccc1F", "Potency": "active: 20.6 µM"}
{"smiles": "C/C(N)=C(/C#N)C(=O)COC(=O)C1CSC2(c3ccc(F)cc3)CCC(=O)N12", "note": "(stereo unspecified)", "Potency": "inconclusive: 18.4 µM [rising, single point]"}
{"smiles": "Cc1ccccc1OCC(O)Cn1c(=N)n(Cc2ccccc2)c2ccccc21", "note": "(stereo unspecified)", "Potency": "inconclusive: 20.6 µM [cytotoxic, single point]"}
{"smiles": "Cc1nn(-c2nc3ccccc3[nH]2)c(=O)c2ccccc12", "Potency": "active: 5.8 µM"}
{"smiles": "CC(C)(C)c1ccc(-c2nc(SCCOc3ccc(Cl)cc3)n3[nH]c(=O)cc3n2)cc1", "Potency": "inconclusive: 23.1 µM [rising, single point]"}
{"smiles": "Fc1ccc(CCn2c(Cn3c(-c4cnccn4)nc4ccccc43)nc3ccccc32)cc1", "Potency": "inconclusive: 36.6 µM [cytotoxic, partial curve, poor fit]"}
{"smiles": "O=C(c1cccc(-c2nnc(-c3ccccc3)o2)c1)N1CCCCC1", "Potency": "inconclusive: 6.51 µM [cytotoxic, partial curve]"}
{"smiles": "NC(=O)[C@H]1CC2(CC(c3cccc(NC(=O)CC(c4ccccc4)c4ccccc4)c3)=NO2)CN1C(=O)C(c1ccccc1)c1ccccc1", "note": "(stereo partly specified)", "Potency": "inconclusive: 29.1 µM [rising, single point]"}
{"smiles": "CCn1nnc(NC(=O)c2cc3ccccc3o2)n1", "Potency": "inconclusive: 29.1 µM [cytotoxic, single point]"}
{"smiles": "CCCCC1=CC2=C(c3ccco3)C(=O)C(C)(OC(=O)c3ccc(OC)cc3)C(=O)C2=CN1CCc1ccccn1", "note": "(stereo unspecified)", "Potency": "inconclusive: 0.92 µM [rising, full curve, poor fit]"}
{"smiles": "O=C(Nc1nccs1)c1ccc(-c2ccc(F)cc2)o1", "Potency": "inconclusive: 20.6 µM [cytotoxic, single point]"}
{"smiles": "Cc1cc(=O)n2nc(N3CCCC(C(=O)NC4CCC(C)CC4)C3)sc2n1", "note": "(stereo unspecified)", "activity change, negative = cytotoxicity": "inconclusive: 0.529%"}
{"smiles": "O=C1C2C(c3ccccc3)(C(=O)N1c1ccc(Cl)cc1)C2(c1ccccc1)c1ccccc1", "note": "(stereo unspecified)", "Potency": "inconclusive: 2.59 µM [cytotoxic, partial curve, poor fit]"}
{"smiles": "Cc1nc2ncnn2c(C)c1CCC(=O)NCCC1=CCCCC1", "Potency": "inconclusive: 18.4 µM [cytotoxic, partial curve, poor fit]"}
{"smiles": "CN(C(=O)c1c(Cl)nc2sccn12)C1CCCCC1", "Potency": "inconclusive: 16.4 µM [cytotoxic, single point]"}
{"smiles": "O=C(CCc1ccccc1)NCc1ccncc1", "Potency": "inconclusive: 32.6 µM [rising, single point]"}
{"smiles": "Cc1ccc(S(=O)(=O)N2CCc3cc(C(=O)N(C)Cc4ccccc4)ccc32)cc1", "Potency": "inconclusive: 23.1 µM [cytotoxic, single point]"}
{"smiles": "Nc1nn(-c2ccccc2)c(N)c1N=Nc1ccccc1", "Potency": "active: 5.8 µM"}
{"smiles": "CC(C)(C)c1ccc(OCCNCc2ccccc2)cc1", "Potency": "inconclusive: 32.6 µM [cytotoxic, single point]"}
{"smiles": "COC(=O)c1ccccc1NC(=S)NC(=O)COc1ccccc1", "Potency": "inactive"}
{"smiles": "Cc1cccc(N(C)S(=O)(=O)c2ccc(-c3cc(C)no3)s2)c1", "Potency": "inconclusive: 32.6 µM [cytotoxic, partial curve, poor fit]"}
{"smiles": "CCC1CCCCN1S(=O)(=O)c1ccc(C(=O)Nc2nnc(C3=COCCO3)o2)cc1", "note": "(stereo unspecified)", "Potency": "inconclusive: 18.4 µM [cytotoxic, single point]"}
